These are yes or no findings as the source states them, for the method shown. For some of these results: Binding seen in cells or lysates may run through a third protein. Some binding calls cover weakened binding; strength is not graded here. For some of these results: Where a sequence is shown, tags or fusion partners need not be part of it.
Columns and labels:
[1] = biological target: T1, GFP11-mCLCC1 (mouse) (UniProt Q99LI2); test: split reporter
T1 sequence: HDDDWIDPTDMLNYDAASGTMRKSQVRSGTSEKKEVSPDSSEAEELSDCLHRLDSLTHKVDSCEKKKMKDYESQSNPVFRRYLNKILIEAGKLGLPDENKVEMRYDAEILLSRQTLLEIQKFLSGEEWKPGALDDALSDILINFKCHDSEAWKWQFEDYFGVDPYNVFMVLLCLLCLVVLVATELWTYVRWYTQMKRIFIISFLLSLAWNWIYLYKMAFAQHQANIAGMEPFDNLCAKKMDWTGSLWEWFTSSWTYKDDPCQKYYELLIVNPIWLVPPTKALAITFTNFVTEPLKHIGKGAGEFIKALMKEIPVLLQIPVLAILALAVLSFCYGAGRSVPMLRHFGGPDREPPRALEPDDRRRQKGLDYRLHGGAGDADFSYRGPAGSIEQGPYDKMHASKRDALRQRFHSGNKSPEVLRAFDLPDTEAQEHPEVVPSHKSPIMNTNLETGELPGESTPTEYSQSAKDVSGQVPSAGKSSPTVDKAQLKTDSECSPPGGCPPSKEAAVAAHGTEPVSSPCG

Amino acid sequences for entries named in this document (tags omitted). Residues count along the entry.
UniProt P02649, residues 19-317: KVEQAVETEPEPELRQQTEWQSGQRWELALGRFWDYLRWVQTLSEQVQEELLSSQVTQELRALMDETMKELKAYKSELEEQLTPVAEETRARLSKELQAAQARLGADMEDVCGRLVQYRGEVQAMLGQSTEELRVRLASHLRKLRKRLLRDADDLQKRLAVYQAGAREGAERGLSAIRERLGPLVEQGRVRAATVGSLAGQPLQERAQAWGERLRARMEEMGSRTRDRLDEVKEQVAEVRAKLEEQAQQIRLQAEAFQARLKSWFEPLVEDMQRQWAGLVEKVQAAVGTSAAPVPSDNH

[2] = biological target: T2, twin-StrepTagII-TMEM41B (UniProt Q5BJD5); test: tandem affinity purification
T2 sequence: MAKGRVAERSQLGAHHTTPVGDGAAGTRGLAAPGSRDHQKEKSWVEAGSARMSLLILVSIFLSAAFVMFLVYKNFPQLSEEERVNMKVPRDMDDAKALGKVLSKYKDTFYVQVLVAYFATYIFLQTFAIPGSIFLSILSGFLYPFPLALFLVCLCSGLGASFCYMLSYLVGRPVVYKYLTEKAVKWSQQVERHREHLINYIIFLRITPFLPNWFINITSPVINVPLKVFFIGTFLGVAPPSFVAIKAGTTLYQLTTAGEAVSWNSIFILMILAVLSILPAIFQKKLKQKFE

[3] = biological target: T3, endogenous TMEM41B (Huh7 cells) (human (endogenous in Huh7)) (UniProt Q5BJD5); test: co-IP
T3 sequence: T2 sequence

[4] = biological target: endogenous CLCC1 (mouse liver membranes and geLDs) (mouse (endogenous in liver)) (UniProt Q99LI2); test: native gel or EMSA

Molecule: ApoE-GFP1-10 (from UniProt P02649 19-317)
- binding [1]: binds

B1: CLCC1-FLAG (chloride channel CLIC like 1) (protein, UniProt Q96S66 19-551)
chain: HDDDWIDPTDMLNYDAASGTMRKSQAKYGISGEKDVSPDLSCADEISECYHKLDSLTYKIDECEKKKREDYESQSNPVFRRYLNKILIEAGKLGLPDENKGDMHYDAEIILKRETLLEIQKFLNGEDWKPGALDDALSDILINFKFHDFETWKWRFEDSFGVDPYNVLMVLLCLLCIVVLVATELWTYVRWYTQLRRVLIISFLFSLGWNWMYLYKLAFAQHQAEVAKMEPLNNVCAKKMDWTGSIWEWFRSSWTYKDDPCQKYYELLLVNPIWLVPPTKALAVTFTTFVTEPLKHIGKGTGEFIKALMKEIPALLHLPVLIIMALAILSFCYGAGKSVHVLRHIGGPESEPPQALRPRDRRRQEEIDYRPDGGAGDADFHYRGQMGPTEQGPYAKTYEGRREILRERDVDLRFQTGNKSPEVLRAFDVPDAEAREHPTVVPSHKSPVLDTKPKETGGILGEGTPKESSTESSQSAKPVSGQDTSGNTEGSPAAEKAQLKSEAAGSPDQGSTYSPARGVAGPRGQDPVSSPCG
- binding [2]: binds

B2: endogenous CLCC1 (Huh7 cells) (protein, UniProt Q96S66 19-551)
chain: B1 chain
- binding [3]: binds

B3: endogenous CLCC1 (mouse liver membranes and geLDs) (protein, UniProt Q99LI2 19-539)
chain: T1 sequence
- binding [4]: binds
